## Primary screen of a compound library

Amino acid sequences for entries named in this document (tags omitted).
UniProt E9BF75, entry or part of it: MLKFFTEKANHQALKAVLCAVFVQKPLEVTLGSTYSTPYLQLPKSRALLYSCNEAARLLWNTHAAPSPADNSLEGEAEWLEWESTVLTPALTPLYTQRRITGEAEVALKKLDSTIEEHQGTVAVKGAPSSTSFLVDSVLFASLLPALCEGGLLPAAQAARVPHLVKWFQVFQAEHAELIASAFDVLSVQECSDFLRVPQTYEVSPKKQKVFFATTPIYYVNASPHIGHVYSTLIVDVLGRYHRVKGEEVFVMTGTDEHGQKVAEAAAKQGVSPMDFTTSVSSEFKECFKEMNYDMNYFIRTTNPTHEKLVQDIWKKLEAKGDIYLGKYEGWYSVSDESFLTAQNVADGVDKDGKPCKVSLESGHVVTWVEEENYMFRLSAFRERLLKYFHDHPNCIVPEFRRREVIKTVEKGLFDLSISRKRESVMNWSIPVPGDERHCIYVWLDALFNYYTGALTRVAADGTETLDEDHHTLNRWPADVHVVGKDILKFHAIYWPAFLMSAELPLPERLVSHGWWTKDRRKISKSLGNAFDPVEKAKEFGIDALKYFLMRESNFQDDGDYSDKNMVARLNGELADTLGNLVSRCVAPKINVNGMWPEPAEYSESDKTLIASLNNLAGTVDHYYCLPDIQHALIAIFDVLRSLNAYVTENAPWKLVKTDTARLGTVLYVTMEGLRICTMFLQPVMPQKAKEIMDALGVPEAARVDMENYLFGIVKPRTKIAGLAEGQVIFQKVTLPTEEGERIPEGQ

The values are deposited in ChEMBL (CHEMBL3988442, “University of Dundee, Small-Polar-MMV Screening Library” (2021)).

LdMetRS: 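Methionyl-tRNA synthetase (putative), Leishmania donovani (UniProt E9BF75). Primary screen of methionyl-tRNA synthetase; the read-out is not stated. The test concentration is not given. Values are per cent inhibition. About 68,000 compounds were tested under these conditions; 0.035% (about 24) showed 50% or more at least once.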
Mtb heat-shock: 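Assay on Mycobacterium tuberculosis, filed only as a heat shock assay from Cornell; the read-out is not stated. The concentration is filed as 10 mM, unlikely as a test dose, so the dose is not known. The record gives no direction; compounds that gave an IC50 in retests scored well above the rest, so higher reads as stronger inhibition. About 69,000 compounds were tested under these conditions; 1.4% (about 930) showed 50% or more at least once.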

Results are percentages, as filed.
The controls that fix the scale are not given in the record; negative values are as filed.
This is an unselected part of the compounds tested.

Result for Cc1cc(N2CCC(NC(=O)CCC3CCCO3)CC2)nc(C)n1 (stereo not shown) was LdMetRS: 7.56%; Mtb heat-shock: -3.456%.
Result for COc1ccc2c(ccn2CCC(=O)NCCC(=O)O)c1 was LdMetRS: 0.2584%; Mtb heat-shock: 9.23%.
Result for CCCn1ccnc1-c1cccc(NC2CCOC2)c1 (stereo not shown) was LdMetRS: 7.563%; Mtb heat-shock: -2.093%.
Result for Cc1cc(C(=O)Nc2ccc3oc(=O)n(CCN(C)C)c3c2)c(C)o1 was LdMetRS: 11.67%; Mtb heat-shock: -43.54%.
Result for Cc1ccc(C)c(OCCNC(=O)C2CCOC2)c1 (stereo not shown) was LdMetRS: 10.51%; Mtb heat-shock: 1.387%.
Result for Cc1ccccc1C(NC(=O)Cn1cc(C2CC2)nn1)C1CC1 (stereo not shown) was LdMetRS: 8.014%; Mtb heat-shock: -15.06%.
Result for CN(CCCc1cnn(C)c1)C(=O)C1CCC(=O)N(C2CCCC2)C1 (stereo not shown) was LdMetRS: 6.599%; Mtb heat-shock: -13.1%.
Result for [H][C@@]12CS(=O)(=O)C[C@]1([H])N(C(=O)c1ncoc1C)CCN2Cc1ccccc1 was Mtb heat-shock: 2.808%.
Result for O=C(O)c1ccn(-c2cccc(NC(=O)c3ccccc3Cl)c2)n1 was LdMetRS: 5.932%; Mtb heat-shock: 15.62%.
Result for Cc1nn(C)cc1-c1cc(C(=O)NCC(C)(C)c2ccc(F)cc2)n[nH]1 was LdMetRS: 14.95%; Mtb heat-shock: 36.92%.
Result for N#Cc1cccnc1N1CCCN(C(=O)CCn2cncn2)CC1 was LdMetRS: 21.65%; Mtb heat-shock: -2.946%.
Result for CNC(=O)C1CCN(c2nccc(CCC(F)(F)F)n2)C1 (stereo not shown) was LdMetRS: 9.384%; Mtb heat-shock: 7.873%.
Result for O=S(=O)(CCCN1CCCC1Cn1cccn1)c1ccccc1 (stereo not shown) was LdMetRS: 17.77%; Mtb heat-shock: 4.185%.
Result for [H][C@@]12CCN(C(=O)c3cnn(C)c3)[C@@]1([H])CCN2c1cccc(C)n1 was Mtb heat-shock: 1.819%.
Result for CCc1c(NCc2cccnc2)cnn1CC(C)C was LdMetRS: 2.717%; Mtb heat-shock: -10.2%.
Result for c1cnc(NCc2n[nH]c3c2CCN(Cc2cccnc2)C3)nc1 was LdMetRS: 18.12%; Mtb heat-shock: -6.808%.
Result for CCN(CC)CC1CCN(Cc2ccn(C)c(=O)c2)CC1 was LdMetRS: 19.67%; Mtb heat-shock: -23.84%.
Result for CCN(C(=O)c1nc2c(s1)CCCN2c1ccc(C)nn1)C(C)C was LdMetRS: 3.297%; Mtb heat-shock: 8.669%.
Result for O=C(CCc1nccs1)N1CCN(c2nccs2)CC1 was LdMetRS: 9.392%; Mtb heat-shock: 11.27%.
Result for CCOCC(=O)N1CCC(C(O)c2ccc(F)cc2)CC1 (stereo not shown) was LdMetRS: 8.493%; Mtb heat-shock: -26.65%.
Result for O=C(c1ccc2c(c1)OCO2)N1CCCC(n2cccn2)C1 (stereo not shown) was LdMetRS: 13.07%; Mtb heat-shock: 5.382%.
Result for O=C(c1ncccc1O)N1CCc2c(nc(-c3ccncc3)[nH]c2=O)C1 was LdMetRS: -2.688%; Mtb heat-shock: -2.514%.
Result for CCS(=O)(=O)N1CCc2c(cccc2NCc2nc(C)c(C)o2)C1 was LdMetRS: 8.993%; Mtb heat-shock: -25.22%.
Result for CC(NC(=O)NCCCN(C)S(C)(=O)=O)c1cccnc1 (stereo not shown) was LdMetRS: 21.49%; Mtb heat-shock: 7.832%.
Result for Cc1ccc(S(=O)(=O)N2CCC3(CC(C(=O)NCC(C)C)=NO3)C2)cc1 (stereo not shown) was LdMetRS: 8.497%; Mtb heat-shock: -6.882%.
Result for [H][C@]12CC[C@@]3(N=C(CC)N(CC)C3=O)[C@@]1([H])CN(S(=O)(=O)CC)C2 was Mtb heat-shock: -4.482%.
Result for CC(c1cccc(-c2ncc(C#N)c(N)n2)c1)N(C)C (stereo not shown) was LdMetRS: 16.67%; Mtb heat-shock: -10.92%.
Result for Fc1ccc(OCCCN2CCOC(Cn3cncn3)C2)cc1 (stereo not shown) was LdMetRS: 12.5%; Mtb heat-shock: -7.832%.
Result for CC(C)C(C(=O)NC1CCOCC1)n1cnc2cc(F)c(F)cc21 (stereo not shown) was LdMetRS: 17.55%; Mtb heat-shock: -6.707%.

Some entries from above, unchanged:

structure,LdMetRS,Mtb heat-shock
c1cnc(NCc2n[nH]c3c2CCN(Cc2cccnc2)C3)nc1,18.12%,-6.808%
Cc1cc(N2CCC(NC(=O)CCC3CCCO3)CC2)nc(C)n1 (stereo not shown),7.56%,-3.456%
CNC(=O)C1CCN(c2nccc(CCC(F)(F)F)n2)C1 (stereo not shown),9.384%,7.873%